Reference: publication PMC8227628, “DisA Limits RecG Activities at Stalled or Reversed Replication Forks” (Cells, 2021)
No constants are given. Whether binding was seen depends on the method and setting. Some entries that bind do so weakly or less than the wild type. Sequences can lack the tags named with a protein.

T1: DisA fused to the T18 or T25 catalytic domain of the adenylate cyclase (B. subtilis) (UniProt P37573)
T1 sequence: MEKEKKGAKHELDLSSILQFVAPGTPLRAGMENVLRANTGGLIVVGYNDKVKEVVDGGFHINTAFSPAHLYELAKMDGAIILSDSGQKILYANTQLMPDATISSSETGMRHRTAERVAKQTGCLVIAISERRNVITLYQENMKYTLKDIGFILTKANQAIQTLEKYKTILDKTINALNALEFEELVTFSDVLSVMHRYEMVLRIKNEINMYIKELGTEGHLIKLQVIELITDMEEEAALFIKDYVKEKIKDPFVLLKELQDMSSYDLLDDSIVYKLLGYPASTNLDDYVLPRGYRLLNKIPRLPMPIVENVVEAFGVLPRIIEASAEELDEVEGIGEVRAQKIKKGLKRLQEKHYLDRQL

T2: His-tagged DisA (B. subtilis, UniProt P37573 1-360)
T2 sequence (looked up): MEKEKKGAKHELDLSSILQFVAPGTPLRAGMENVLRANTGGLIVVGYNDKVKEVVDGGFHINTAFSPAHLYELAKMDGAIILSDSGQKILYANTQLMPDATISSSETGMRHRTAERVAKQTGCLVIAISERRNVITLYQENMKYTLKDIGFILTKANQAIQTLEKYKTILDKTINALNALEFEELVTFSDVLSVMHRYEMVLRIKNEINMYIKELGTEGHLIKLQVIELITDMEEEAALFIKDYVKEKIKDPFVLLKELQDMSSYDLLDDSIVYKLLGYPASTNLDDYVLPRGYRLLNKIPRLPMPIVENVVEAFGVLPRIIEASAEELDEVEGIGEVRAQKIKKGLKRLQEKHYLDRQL


Key:
[1] = target: RecG fused to the T18 or T25 catalytic domain of the adenylate cyclase (B. subtilis) (UniProt O34942); test: two-hybrid; adenylate cyclase-based bacterial two-hybrid in E. coli BTH101; T18 and T25 fusions at the N- or C-terminus co-transformed pairwise; spotted on LB plates with 0.5 mM IPTG and X-Gal, 25 °C for 3-4 days; blue colonies as read-out
[2] = target: T1, DisA fused to the T18 or T25 catalytic domain of the adenylate cyclase (B. subtilis); test: as above
[3] = target: T2, His-tagged DisA; test: pull-down; Ni2+ affinity chromatography: His-tagged DisA (1 µg) and RecG (0.5 µg) pre-incubated in buffer B (50 mM Tris-HCl pH 7.5, 1 mM DTT, 50 mM NaCl, 1 mM MgCl2, 0.05 mg/mL BSA, 5% glycerol) 5 min at 37 °C, loaded onto a 50 µL Ni2+ microcolumn, washed, eluted with 400 mM imidazole; SDS-PAGE, Coomassie; both purified

binding [1] | binding [2] | Binder | binding [3]
binds | no binding | RecG fused to the T18 or T25 catalytic domain of the adenylate cyclase (protein, UniProt O34942 1-682) MKQHQQTSIANIKGIGPETEKTLNELGIYDISDLLNYFPYRYDDYELRDLEEVKHDERVTVEGKVHSEPSLTYYGKKRNRLTFRLLVGHYLITAVCFNRPYLKKKLSLGSVVTVSGKWDKHRQTISVQELKNGPHQEDKSIEPVYSVKENVTVKMMRRFIQQALTQYADSLPDPLPEKLRKSYKLPDYYQALKAMHQPETREALKLARRRFVYEEFLLFQLKMQAFRKAEREQTQGIRQRFSNEELMRFIKSLPFPLTNAQSRVLREITADMSSPYRMNRLLQGDVGSGKTAVAAIALYAAILSGYQGALMVPTEILAEQHADSLVSLFEKWDVSVALLTSSVKGKRRKELLERLAAGEIDILVGTHALIQDEVEFKALSLVITDEQHRFGVEQRKKLRNKGQDPDVLFMTATPIPRTLAITVFGEMDVSVIDEMPAGRKRIETYWVKHDMLDRILAFVEKELKQGRQAYIICPLIEESDKLDVQNAIDVYNMLSDIFRGKWNVGLMHGKLHSDEKDQVMREFSANHCQILVSTTVVEVGVNVPNATIMVIYDADRFGLSQLHQLRGRVGRGEHQSFCILMADPKSETGKERMRIMSETNDGFELSEKDLELRGPGDFFGKKQSGMPEFKVADMVHDYRALETARQDAANLVASDAFWKEPEYAVLRDELLKSGVMDGEKLS | –
– | – | native RecG (natural protein, B. subtilis, UniProt O34942 1-682, looked up) MKQHQQTSIANIKGIGPETEKTLNELGIYDISDLLNYFPYRYDDYELRDLEEVKHDERVTVEGKVHSEPSLTYYGKKRNRLTFRLLVGHYLITAVCFNRPYLKKKLSLGSVVTVSGKWDKHRQTISVQELKNGPHQEDKSIEPVYSVKENVTVKMMRRFIQQALTQYADSLPDPLPEKLRKSYKLPDYYQALKAMHQPETREALKLARRRFVYEEFLLFQLKMQAFRKAEREQTQGIRQRFSNEELMRFIKSLPFPLTNAQSRVLREITADMSSPYRMNRLLQGDVGSGKTAVAAIALYAAILSGYQGALMVPTEILAEQHADSLVSLFEKWDVSVALLTSSVKGKRRKELLERLAAGEIDILVGTHALIQDEVEFKALSLVITDEQHRFGVEQRKKLRNKGQDPDVLFMTATPIPRTLAITVFGEMDVSVIDEMPAGRKRIETYWVKHDMLDRILAFVEKELKQGRQAYIICPLIEESDKLDVQNAIDVYNMLSDIFRGKWNVGLMHGKLHSDEKDQVMREFSANHCQILVSTTVVEVGVNVPNATIMVIYDADRFGLSQLHQLRGRVGRGEHQSFCILMADPKSETGKERMRIMSETNDGFELSEKDLELRGPGDFFGKKQSGMPEFKVADMVHDYRALETARQDAANLVASDAFWKEPEYAVLRDELLKSGVMDGEKLS | no binding (tested: RecG 0.5 µg, His-tagged DisA 1 µg)
